In patent publication US12577232B2, “N-heterocycle substituted tryptamine derivatives and methods of using” (ENVERIC B[…] INC., priority 2024, dated 2026):
Some of these results come from one statement about several compounds together. At least one compound was matched to its structure with a doubt left.

System: C57BL/6 mice
Assay: Mouse Head Twitch Response (HTR) assay to assess hallucinogenic potential
Format: in vivo
Conditions: 3 mg/kg i.p., 0-15 min interval (preliminary screening)
Protocol: All experiments were approved by the University of Calgary Animal Care and Use Committee in accordance with Canadian Council on Animal Care guidelines. C57BL/6-Elite mixed sex mice were obtained from Charles River (8 weeks old). Until the first experiment, mice were group-housed, then single-housed on a 12:12 h light/dark schedule (lights on at 07:00 hours) with ad libitum access to food and water. Before any behavioral screening, mice were handled and exposed to the testing chamber for at least 5 min each day for three successive days and habituated to the experimental room 1 h before testing. The testing chamber was cleaned with a 70% ethanol solution between experiments to eliminate odor from other mice. Drug compounds (100 mM in DMSO) were diluted in sterile excipient (10% EtOH/15% PEG400 in ddH2O) to 3 mg/kg (preliminary screening) or 0.5, 2, 4, 7, and 10 mg/kg (dose-curve analysis) and administered using intraperitoneal (i.p.) drug injections. […] HTR was analyzed during the 0-to-15-minute window following drug administration. […] Mean HTR between 10 and 5 signifies reduced hallucinogenic potential relative to positive controls.

## CN(C)CCc1c[nH]c2ccccc12 [DMT, dimethyltryptamine, reference compound]
  mean HTR: ≥ 10

## CN(C)CCc1c[nH]c2cccc(O)c12 [psilocin, reference compound]
  mean HTR: ≥ 10

## COc1ccc2c3c([nH]c2c1)CCN(C)CC3 [TBG, tabernanthalog, reference compound]
  mean HTR: ≤ 5
